{"sequences": {"note": "Amino acid sequences for entries named in this document (tags omitted). A change or cut given only in a name is not applied to a line headed by its entry.", "UniProt Q9UPM8": "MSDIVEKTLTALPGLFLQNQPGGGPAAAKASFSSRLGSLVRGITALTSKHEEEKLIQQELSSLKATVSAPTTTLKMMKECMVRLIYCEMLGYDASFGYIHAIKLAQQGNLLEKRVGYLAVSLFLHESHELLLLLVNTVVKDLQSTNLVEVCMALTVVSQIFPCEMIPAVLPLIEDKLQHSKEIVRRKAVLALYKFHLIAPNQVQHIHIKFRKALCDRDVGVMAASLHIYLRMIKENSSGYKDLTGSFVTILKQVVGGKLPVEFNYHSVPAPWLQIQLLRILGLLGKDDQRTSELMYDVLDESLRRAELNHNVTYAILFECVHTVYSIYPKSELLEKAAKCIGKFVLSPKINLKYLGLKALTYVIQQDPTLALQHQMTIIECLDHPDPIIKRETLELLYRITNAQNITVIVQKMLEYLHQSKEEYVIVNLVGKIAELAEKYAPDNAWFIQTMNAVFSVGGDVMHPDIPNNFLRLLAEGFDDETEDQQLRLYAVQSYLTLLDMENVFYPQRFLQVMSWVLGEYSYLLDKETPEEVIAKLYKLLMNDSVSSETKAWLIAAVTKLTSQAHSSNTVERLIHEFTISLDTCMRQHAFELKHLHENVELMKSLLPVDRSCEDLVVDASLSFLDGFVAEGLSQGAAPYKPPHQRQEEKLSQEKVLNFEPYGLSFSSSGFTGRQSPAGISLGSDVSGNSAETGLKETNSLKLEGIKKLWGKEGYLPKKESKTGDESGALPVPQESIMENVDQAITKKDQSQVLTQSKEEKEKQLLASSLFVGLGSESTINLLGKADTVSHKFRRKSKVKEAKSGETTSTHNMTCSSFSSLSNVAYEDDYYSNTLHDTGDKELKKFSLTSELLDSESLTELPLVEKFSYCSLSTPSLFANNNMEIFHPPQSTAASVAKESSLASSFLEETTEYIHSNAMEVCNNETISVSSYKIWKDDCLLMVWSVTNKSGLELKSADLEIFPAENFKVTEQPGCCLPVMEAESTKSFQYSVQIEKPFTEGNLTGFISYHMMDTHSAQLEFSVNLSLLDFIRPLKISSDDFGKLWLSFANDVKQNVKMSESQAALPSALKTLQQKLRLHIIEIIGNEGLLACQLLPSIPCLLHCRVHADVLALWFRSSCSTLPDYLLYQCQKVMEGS", "UniProt Q9UHR4": "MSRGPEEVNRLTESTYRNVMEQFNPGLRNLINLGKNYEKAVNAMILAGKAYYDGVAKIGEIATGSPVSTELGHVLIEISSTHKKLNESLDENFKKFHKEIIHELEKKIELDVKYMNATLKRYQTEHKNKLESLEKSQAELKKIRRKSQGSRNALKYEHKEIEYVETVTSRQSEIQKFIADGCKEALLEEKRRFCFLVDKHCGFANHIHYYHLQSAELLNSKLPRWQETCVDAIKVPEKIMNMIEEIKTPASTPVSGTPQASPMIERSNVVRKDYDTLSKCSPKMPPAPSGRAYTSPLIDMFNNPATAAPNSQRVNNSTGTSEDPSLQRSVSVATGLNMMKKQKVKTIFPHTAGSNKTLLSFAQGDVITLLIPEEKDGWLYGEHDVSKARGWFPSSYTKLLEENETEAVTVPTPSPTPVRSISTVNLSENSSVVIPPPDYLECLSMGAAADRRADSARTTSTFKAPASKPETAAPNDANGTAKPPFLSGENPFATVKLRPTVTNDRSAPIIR", "UniProt Q9UHF1": "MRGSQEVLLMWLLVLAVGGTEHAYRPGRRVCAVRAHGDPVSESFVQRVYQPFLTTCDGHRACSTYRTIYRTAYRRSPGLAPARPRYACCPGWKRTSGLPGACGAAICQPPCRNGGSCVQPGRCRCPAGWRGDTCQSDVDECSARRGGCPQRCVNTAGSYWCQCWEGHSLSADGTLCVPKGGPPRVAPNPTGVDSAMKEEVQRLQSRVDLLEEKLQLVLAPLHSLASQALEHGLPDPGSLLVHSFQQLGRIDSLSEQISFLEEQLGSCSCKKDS", "UniProt Q9UKJ3": "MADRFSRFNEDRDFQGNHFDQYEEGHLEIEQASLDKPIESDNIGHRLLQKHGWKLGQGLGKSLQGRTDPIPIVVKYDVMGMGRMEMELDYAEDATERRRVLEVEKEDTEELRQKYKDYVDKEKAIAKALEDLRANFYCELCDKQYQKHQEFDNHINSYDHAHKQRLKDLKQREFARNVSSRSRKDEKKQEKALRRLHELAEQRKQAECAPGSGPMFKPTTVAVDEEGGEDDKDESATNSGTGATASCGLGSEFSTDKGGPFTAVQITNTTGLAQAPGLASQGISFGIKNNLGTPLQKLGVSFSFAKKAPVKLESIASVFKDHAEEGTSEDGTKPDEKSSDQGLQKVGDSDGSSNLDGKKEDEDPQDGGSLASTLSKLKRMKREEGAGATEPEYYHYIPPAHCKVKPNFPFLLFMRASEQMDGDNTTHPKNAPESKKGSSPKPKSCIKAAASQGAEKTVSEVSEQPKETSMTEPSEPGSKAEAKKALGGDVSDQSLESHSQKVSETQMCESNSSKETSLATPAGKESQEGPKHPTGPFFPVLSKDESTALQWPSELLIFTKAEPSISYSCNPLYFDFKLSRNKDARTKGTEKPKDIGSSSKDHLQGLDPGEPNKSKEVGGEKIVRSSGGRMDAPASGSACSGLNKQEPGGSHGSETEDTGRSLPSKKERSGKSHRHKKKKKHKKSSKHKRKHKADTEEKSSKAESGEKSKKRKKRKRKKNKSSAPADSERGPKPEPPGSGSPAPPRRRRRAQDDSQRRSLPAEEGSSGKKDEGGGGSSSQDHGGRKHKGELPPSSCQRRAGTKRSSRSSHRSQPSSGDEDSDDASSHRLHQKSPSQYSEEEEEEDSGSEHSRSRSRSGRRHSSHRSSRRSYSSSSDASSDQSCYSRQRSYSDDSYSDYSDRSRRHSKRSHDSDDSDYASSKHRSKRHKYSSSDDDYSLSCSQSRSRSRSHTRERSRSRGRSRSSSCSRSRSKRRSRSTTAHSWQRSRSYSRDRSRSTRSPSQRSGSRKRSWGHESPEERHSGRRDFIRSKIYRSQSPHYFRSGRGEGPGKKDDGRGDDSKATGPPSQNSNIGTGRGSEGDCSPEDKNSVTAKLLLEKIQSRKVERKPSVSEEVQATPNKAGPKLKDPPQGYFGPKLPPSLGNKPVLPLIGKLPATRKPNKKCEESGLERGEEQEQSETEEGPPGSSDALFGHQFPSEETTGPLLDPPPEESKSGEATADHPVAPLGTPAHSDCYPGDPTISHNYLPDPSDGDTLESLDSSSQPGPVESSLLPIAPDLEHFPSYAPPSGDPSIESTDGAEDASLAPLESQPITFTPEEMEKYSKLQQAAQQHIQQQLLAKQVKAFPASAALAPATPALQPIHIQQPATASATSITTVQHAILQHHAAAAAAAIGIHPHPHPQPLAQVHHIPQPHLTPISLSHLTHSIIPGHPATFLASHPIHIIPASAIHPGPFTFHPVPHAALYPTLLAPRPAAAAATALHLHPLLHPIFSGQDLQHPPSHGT", "UniProt Q9UPV0, whole entry, looked up": "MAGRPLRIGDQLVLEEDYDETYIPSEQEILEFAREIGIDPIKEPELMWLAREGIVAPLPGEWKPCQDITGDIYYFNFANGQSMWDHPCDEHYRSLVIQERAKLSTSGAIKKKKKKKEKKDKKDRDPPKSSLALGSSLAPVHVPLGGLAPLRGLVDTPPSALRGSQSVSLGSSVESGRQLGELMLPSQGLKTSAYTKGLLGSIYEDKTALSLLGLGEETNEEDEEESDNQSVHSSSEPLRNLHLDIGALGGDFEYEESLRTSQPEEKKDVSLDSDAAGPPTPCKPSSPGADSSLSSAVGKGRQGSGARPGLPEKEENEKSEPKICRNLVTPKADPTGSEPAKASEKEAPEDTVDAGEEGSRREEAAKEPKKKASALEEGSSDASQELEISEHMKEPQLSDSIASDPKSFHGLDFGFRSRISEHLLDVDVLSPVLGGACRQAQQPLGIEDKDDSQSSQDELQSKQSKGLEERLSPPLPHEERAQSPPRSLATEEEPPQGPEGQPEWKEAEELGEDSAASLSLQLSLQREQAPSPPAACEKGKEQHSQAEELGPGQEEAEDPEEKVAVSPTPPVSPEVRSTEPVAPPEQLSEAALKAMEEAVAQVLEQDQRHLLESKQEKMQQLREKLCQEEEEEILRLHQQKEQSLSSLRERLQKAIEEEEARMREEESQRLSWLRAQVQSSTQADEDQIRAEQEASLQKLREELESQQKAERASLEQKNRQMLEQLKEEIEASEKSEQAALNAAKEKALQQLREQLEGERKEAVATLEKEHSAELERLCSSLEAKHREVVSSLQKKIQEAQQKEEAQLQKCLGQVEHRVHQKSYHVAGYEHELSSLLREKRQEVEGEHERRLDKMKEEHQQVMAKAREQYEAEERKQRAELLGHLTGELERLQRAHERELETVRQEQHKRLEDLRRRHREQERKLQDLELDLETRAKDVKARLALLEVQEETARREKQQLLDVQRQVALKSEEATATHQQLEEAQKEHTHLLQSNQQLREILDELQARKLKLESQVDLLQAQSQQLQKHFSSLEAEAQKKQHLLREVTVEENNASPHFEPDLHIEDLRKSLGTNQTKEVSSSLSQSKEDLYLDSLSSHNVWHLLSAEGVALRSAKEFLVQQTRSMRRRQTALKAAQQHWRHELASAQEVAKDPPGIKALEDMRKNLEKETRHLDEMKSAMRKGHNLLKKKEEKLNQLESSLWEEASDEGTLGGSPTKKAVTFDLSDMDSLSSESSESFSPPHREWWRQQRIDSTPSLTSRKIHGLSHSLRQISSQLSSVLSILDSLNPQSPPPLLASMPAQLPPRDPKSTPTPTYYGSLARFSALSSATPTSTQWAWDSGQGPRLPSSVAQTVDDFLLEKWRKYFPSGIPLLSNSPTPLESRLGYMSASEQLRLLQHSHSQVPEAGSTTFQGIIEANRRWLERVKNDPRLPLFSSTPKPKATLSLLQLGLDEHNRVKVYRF", "UniProt Q9UI47": "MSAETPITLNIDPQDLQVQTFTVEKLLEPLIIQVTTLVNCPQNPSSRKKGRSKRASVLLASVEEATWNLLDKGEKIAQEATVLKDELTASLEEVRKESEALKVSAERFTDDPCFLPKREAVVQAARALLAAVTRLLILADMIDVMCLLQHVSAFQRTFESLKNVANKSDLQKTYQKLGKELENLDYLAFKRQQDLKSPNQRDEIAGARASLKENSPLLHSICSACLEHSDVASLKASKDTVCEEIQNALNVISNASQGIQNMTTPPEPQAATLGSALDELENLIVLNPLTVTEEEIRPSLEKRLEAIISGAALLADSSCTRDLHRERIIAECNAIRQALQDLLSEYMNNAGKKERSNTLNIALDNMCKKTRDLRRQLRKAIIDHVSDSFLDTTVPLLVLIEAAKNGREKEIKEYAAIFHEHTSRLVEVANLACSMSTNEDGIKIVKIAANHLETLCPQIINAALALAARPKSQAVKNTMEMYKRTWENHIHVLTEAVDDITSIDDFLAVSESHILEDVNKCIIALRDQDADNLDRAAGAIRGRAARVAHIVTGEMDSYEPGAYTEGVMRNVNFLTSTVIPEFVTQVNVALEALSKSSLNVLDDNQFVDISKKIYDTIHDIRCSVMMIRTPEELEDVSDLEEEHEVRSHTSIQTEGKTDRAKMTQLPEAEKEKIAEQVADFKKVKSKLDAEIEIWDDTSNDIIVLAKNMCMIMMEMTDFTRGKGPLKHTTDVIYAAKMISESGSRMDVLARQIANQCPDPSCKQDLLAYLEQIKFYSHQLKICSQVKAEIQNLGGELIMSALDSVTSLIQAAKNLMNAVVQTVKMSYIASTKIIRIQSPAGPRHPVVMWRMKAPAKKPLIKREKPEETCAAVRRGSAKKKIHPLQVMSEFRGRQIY", "UniProt Q9UHJ6": "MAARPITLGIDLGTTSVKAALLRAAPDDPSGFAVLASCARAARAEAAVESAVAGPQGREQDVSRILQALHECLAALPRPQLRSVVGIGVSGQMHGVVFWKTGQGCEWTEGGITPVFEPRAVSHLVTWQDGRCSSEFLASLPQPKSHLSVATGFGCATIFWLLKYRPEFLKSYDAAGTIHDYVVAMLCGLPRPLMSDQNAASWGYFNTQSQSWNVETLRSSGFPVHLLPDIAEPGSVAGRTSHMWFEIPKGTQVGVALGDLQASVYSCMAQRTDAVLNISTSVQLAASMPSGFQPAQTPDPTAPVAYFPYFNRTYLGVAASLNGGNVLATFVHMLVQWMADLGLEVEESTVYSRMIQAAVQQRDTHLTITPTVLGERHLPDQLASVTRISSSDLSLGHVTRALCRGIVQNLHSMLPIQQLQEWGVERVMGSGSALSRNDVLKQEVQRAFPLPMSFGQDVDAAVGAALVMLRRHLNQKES", "UniProt Q9UNQ2": "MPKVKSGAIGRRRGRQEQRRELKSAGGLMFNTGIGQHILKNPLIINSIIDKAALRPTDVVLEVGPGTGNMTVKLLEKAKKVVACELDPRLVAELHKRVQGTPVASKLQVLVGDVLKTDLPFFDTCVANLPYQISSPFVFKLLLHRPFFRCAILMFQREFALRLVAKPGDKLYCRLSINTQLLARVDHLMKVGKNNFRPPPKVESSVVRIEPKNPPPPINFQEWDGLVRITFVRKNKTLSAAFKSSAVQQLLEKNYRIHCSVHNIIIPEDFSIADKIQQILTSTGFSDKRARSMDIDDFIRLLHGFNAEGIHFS"}, "source": "the supplement of paper PMC12819154", "about": "“High-throughput peptide-centric local stability assay extends protein–ligand identification to membrane proteins, tissues and bacteria” (Nature Structural & Molecular Biology, 2025)", "note": "The list shows a part of the results. Most entries show no effect beyond the scatter of the controls."}
{"compound": "Cc1nc(Nc2ncc(C(=O)Nc3c(C)cccc3Cl)s2)cc(N2CCN(CCO)CC2)n1 [dasatinib]", "test": "log2 fold change of tryptic peptide abundance, ligand vs vehicle (limited proteolysis) (log2 ratio); higher = more trypsin-susceptible (destabilized)", "settings": "ligand concentration: 5 uM; sample: K562 cleared lysate"}
{"target": "AP4E1 (peptide sequence: KDQSQVLTQSKEEK, peptide start residue: 748) (UniProt Q9UPM8)", "log2 fold change": 0.329}
{"target": "CDC23 (peptide sequence: KKDDETVDSLGPLEK, peptide start residue: 129) (UniProt Q9UJX2)", "log2 fold change": -0.399}
{"target": "GGA1 (peptide sequence: MRPTLFR, peptide start residue: 259) (UniProt Q9UJY5)", "log2 fold change": -0.137}
{"target": "SRRM2 (peptide sequence: YSHSGSSSPDTK, peptide start residue: 967) (UniProt Q9UQ35)", "log2 fold change": -0.705}
{"target": "BAIAP2L1 (peptide sequence: SVSVATGLNMMK, peptide start residue: 329) (UniProt Q9UHR4)", "log2 fold change": -0.204}
{"target": "SMG5 (peptide sequence: NVLDFYK, peptide start residue: 1004) (UniProt Q9UPR3)", "log2 fold change": -0.13}
{"target": "STRIP2 (peptide sequence: QKDIEHFLEMSR, peptide start residue: 426) (UniProt Q9ULQ0)", "log2 fold change": -0.206}
{"target": "UniProt Q9UI30 (peptide sequence: MKLLTHNLLSSHVR, peptide start residue: 1)", "log2 fold change": 0.246}
{"target": "PRPF19 (peptide sequence: TVPEELVKPEELSK, peptide start residue: 193) (UniProt Q9UMS4)", "log2 fold change": -0.175}
{"target": "SH2B3 (peptide sequence: TDHFLSCYPWFHGPISR, peptide start residue: 355) (UniProt Q9UQQ2)", "log2 fold change": 0.551}
{"target": "MRTO4 (peptide sequence: LFGYEMAEFK, peptide start residue: 192) (UniProt Q9UKD2)", "log2 fold change": 0.0738}
{"target": "UniProt Q9UK61 (peptide sequence: SVGGDSDTEDMR, peptide start residue: 694)", "log2 fold change": 1.07}
{"target": "NENF (peptide sequence: YPIVGYTAR, peptide start residue: 137) (UniProt Q9UMX5)", "log2 fold change": 0.359}
{"target": "WDR3 (peptide sequence: NLLVTSGKDTMVK, peptide start residue: 162) (UniProt Q9UNX4)", "log2 fold change": -0.248}
{"target": "EGFL7 (peptide sequence: VAPNPTGVDSAMKEEVQR, peptide start residue: 185) (UniProt Q9UHF1)", "log2 fold change": 0.241}
{"target": "TTC7A (peptide sequence: IKDSMPLLEKNEPK, peptide start residue: 85) (UniProt Q9ULT0)", "log2 fold change": 0.317}
{"target": "UniProt Q9UKV0 (peptide sequence: IQSIWSR, peptide start residue: 548)", "log2 fold change": -0.115}
{"target": "MED13 (peptide sequence: DCCNDCYLALEHGR, peptide start residue: 1227) (UniProt Q9UHV7)", "log2 fold change": -0.673}
{"target": "HOOK1 (peptide sequence: LEAAKDDYR, peptide start residue: 261) (UniProt Q9UJC3)", "log2 fold change": 0.0988}
{"target": "PCTP (peptide sequence: QSLAIESDGKK, peptide start residue: 157) (UniProt Q9UKL6)", "log2 fold change": -0.379}
{"target": "MAD2L2 (peptide sequence: EVYPVGIFQK, peptide start residue: 35) (UniProt Q9UI95)", "log2 fold change": 0.153}
{"target": "GPATCH8 (peptide sequence: LPPSLGNKPVLPLIGKLPATR, peptide start residue: 1135) (UniProt Q9UKJ3)", "log2 fold change": -1.28}
{"target": "RPL26L1 (peptide sequence: YKEELIEK, peptide start residue: 135) (UniProt Q9UNX3)", "log2 fold change": 0.0293}
{"target": "SNX12 (peptide sequence: QGLEQFINK, peptide start residue: 120) (UniProt Q9UMY4)", "log2 fold change": 0.103}
{"target": "CEP164 (peptide sequence: EQLEGERK, peptide start residue: 753) (UniProt Q9UPV0)", "log2 fold change": -0.529}
{"target": "UniProt Q9UKV8 (peptide sequence: DHQALAKAVQVHQDTLRTMYFA, peptide start residue: 838)", "log2 fold change": -0.486}
{"target": "UniProt Q9UI47 (peptide sequence: NLMNAVVQTVK, peptide start residue: 824)", "log2 fold change": -0.0486}
{"target": "SHPK (peptide sequence: VMGSGSALSR, peptide start residue: 427) (UniProt Q9UHJ6)", "log2 fold change": -0.307}
{"target": "DDX20 (peptide sequence: EIAVQIHSVITAIGIK, peptide start residue: 141) (UniProt Q9UHI6)", "log2 fold change": 0.187}
{"target": "SAMD4A (peptide sequence: TSTSFGGQNR, peptide start residue: 154) (UniProt Q9UPU9)", "log2 fold change": 0.37}
{"target": "UniProt Q9UQ16 (peptide sequence: SSVLENFVGR, peptide start residue: 45)", "log2 fold change": -0.112}
{"target": "IPO11 (peptide sequence: LTVDDFEFR, peptide start residue: 541) (UniProt Q9UI26)", "log2 fold change": -0.474}
{"target": "UniProt Q9UJL9 (peptide sequence: VALWEDVTK, peptide start residue: 29)", "log2 fold change": 0.463}
{"target": "ZDHHC8 (peptide sequence: TSSSSLQADQASSNAPGPRPSSGSHR, peptide start residue: 641) (UniProt Q9ULC8)", "log2 fold change": -0.0773}
{"target": "SLC7A11 (peptide sequence: GGYLQGNVNGR, peptide start residue: 13) (UniProt Q9UPY5)", "log2 fold change": 0.278}
{"target": "UniProt Q9UNQ2 (peptide sequence: IHCSVHNIIIPEDFSIADK, peptide start residue: 257)", "log2 fold change": 1.12}
{"target": "PFDN2 (peptide sequence: GKELNEFREK, peptide start residue: 112) (UniProt Q9UHV9)", "log2 fold change": -0.342}
